Test results published in PubChem BioAssay AID1508600 (Functional Genomics Laboratory (NCATS/FGL), 2020).
Screen size: about 53,000 sequences; about 3,700 (7%) were called active.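 Rule for the calls: active = gene knockdowns whose robust z-score for IL-1 alpha signal is at least 2 or at most -2, so actives lie on both sides; inactive = the rest.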 Some of the results follow.

assay: Components of the Cytosolic LPS Sensing Pathway: Gene Identification via Genome-wide siRNA Screen; details: RAW264.7 macrophages, IL-1a HTRF, actives lie on both sides, screened at 100 nM (by protocol), cells primed 5 h with Pam3CSK4 first;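 note: robust z of the log signal after scaling to non-targeting control siRNA wells of the plate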
Summary of the method: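 RAW264.7; siRNA 100 nM final, RNAiMAX, 48h 37 degrees C; Pam3CSK4 5 h; LipidA + TransIT-TKO 24 h; IL-1a HTRF; CellTiter-Glo viability; robust z vs negative-control median.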

Sequence	z-score
GGAUGCUCACCUUCAAAUUTT against Il2	active: 2.33
GGUAAAUCAUGUUUACUCUTT against Det1	inactive: -1.19
CGUGGUCUAUAAUGAUAUUTT against Smim19	inactive: -0.13
GGCUAAAUGGGAAACCUGGTT against Cdkn2b	inactive: -0.0359
CCCUCAUUCUCUAGCGUGATT against H2-K1	inactive: -1.07
GGCAACUUCAAGUCCAUAUTT against Pnma3	active: 3.18
CCACUCUGGCGAACCCAUUTT against Fam241a	inactive: -0.489
GCCCAAACUGCUCUACUGCTT against Fgf1	inactive: 0.919
GGCAUAAAGUUGUUUACAGTT against Zfp706	inactive: -0.401
GGUGUCUGUGCCUAUCAUCTT against Slc34a3	inactive: 0.017
GGGAACUUUCCUCAAGUCUTT against Phactr3	inactive: 0.107
GGGUAUUUCCUGGUGGAUUTT against Mrps6	inactive: 0.221
GGUCAUCAACCAAUUCCAGTT against Tmem127	inactive: 0.17
GGUGCAAAGACAAGUUAAATT against Shh	inactive: 0.482
GGUCAUCUUUCCAGUCAGCTT against Naa50	inactive: -0.664
GGCAGGUGAAUGUGGUAGATT against Btbd17	inactive: 0.165
GGCUUACUUCAUUUCAGUUTT against Zfp526	inactive: 0.0808
GGUUUCAUGUGACUUUUAUTT against Tg	inactive: -0.397
GGUUUUUGCUGAGUCUUGCTT against Olfr299	inactive: 0.00611
CCUCUCUACUACAGACCUUTT against Olfr1058	inactive: -0.471
ACCUGUUGAGCAAAGAAUGTT against Cst8	inactive: -0.0192
GCGCAUAUGGCUACGUUCATT against Rnf182	inactive: -0.2

7 consecutive records out of the list so far, quoted:
Sequence	z-score
GGCAACUUCAAGUCCAUAUTT against Pnma3	active: 3.18
CCACUCUGGCGAACCCAUUTT against Fam241a	inactive: -0.489
GCCCAAACUGCUCUACUGCTT against Fgf1	inactive: 0.919
GGCAUAAAGUUGUUUACAGTT against Zfp706	inactive: -0.401
GGUGUCUGUGCCUAUCAUCTT against Slc34a3	inactive: 0.017
GGGAACUUUCCUCAAGUCUTT against Phactr3	inactive: 0.107
GGGUAUUUCCUGGUGGAUUTT against Mrps6	inactive: 0.221

More records

Sequence	z-score
CCAAGCCCACAACGAUCGUTT against Triobp	inactive: -0.0386
GGUUCACAGAAAUUGAGGUTT against Calhm2	inactive: -0.992
CGAGAAAAUGGAUUCUACCTT against Atp10d	inactive: 0.314
GGAUGAUGCCGUGUAUGAGTT against Kirrel3	inactive: 1.43
GUGGGAAUUCUGAAAAAUATT against Vmn1r231	inactive: 0.301
GGUUUUUAACAAGCUAAUCTT against Bzw1	inactive: 1.51
GCUUUGACUUGAAACAAAATT against LOC574530	inactive: -0.969
GCACUGCUGUCUAUAUUCATT against Olfr117	inactive: 0.476
GCACCAGGAGUUACCUGUATT against Tex2	inactive: -0.12
GGUGCUCAGCAUGUUUGCUTT against Avpr1b	inactive: -1.06
GGAUUAAAUCCGAAAAGCUTT against Tmem51	active: -2.36
GCAACUUGUGCCUCUGCUATT against Dhh	inactive: 1.17
CCAUGUCAAGCGGAUAGCATT against Mc5r	inactive: -0.4
ACCAGUAUGGCUUAAAGACTT against Bglap3	inactive: -0.653
GGCUGUCUUACAAUGUAAUTT against Gabrb2	inactive: -0.638
GAAGAUUCUCCAUUGUUUGTT against Lce1e	inactive: 1.16
GGUCAUGAGAUCAGCCCUUTT against Adh5	inactive: -0.167
GGUGGUCACCUAUUCAUGUTT against Cd55	inactive: 0.114
CCAUCUGCAUCAAGAGAAATT against Kirrel2	inactive: 0.709
GGGUCAAAGUCAGACUAUGTT against Cnpy4	inactive: -0.599
CGGUUAGACAGUGCACCAATT against Dnm1	inactive: 0.4
CGAGAGUGGGUGGGUUGAATT against Zfp950	inactive: 0.628

Some of the entries so far, as labelled records.
CGGUUAGACAGUGCACCAATT against Dnm1
  z-score: inactive: 0.4
CGAGAGUGGGUGGGUUGAATT against Zfp950
  z-score: inactive: 0.628

(further entries)

Sequence	z-score
GGACAAUAGAUGUGUUUGATT against Ddb2	inactive: 1.57
CCUAACUUCACCAUAAUCATT against Xrn2	inactive: 0.759
GGUCAAAAUGUCUUUGGAATT against Rgs1	inactive: -1.63
CCUCCAUUAACUAUGUUAGTT against Chd1l	inactive: -0.16
GGAGGAUGGAAAGAUAAAATT against Slc25a27	inactive: -1.18
GGUGAUGGAGAAGAGAAGATT against Fam107b	active: 2.88
GGUUAAAAGCAUCUCUAAGTT against Cd8b1	inactive: 0.137
ACUACAUUACCAGAAGACATT against Olfr1178	inactive: 1.5
GCCUUGAACCUUCACACCUTT against Ccl8	inactive: -0.941
GCGAAGUCAUCAAAUUUUCTT against Abcb11	inactive: 0.622
GGGAGGAGAUUAUUUCUAUTT against Nmnat2	inactive: -0.228
GCCUUCAAGCCAAAGAUAGTT against Lin54	inactive: -0.582
GGGUUUACUUCUCAGACAGTT against Cfap20	inactive: 0.175
GGGACCUGACCUUACUCAUTT against Shisa4	inactive: -1.77
GGCUCCUUAAAGAUAUGUUTT against Nsmaf	inactive: 1.07
GGUGAAGGCUUACCAGAUUTT against Oog1	inactive: 0.894
GGUUUGUGGAUGACAACGGTT against Mtf1	inactive: 0.216
GGCCUAACCUCCAAAAGUATT against Xpo4	inactive: 0.307
CCACAAGUUCACUAAGGAGTT against Six3	inactive: 0.193
GCAGUGCUCUUUAGCAUAATT against Zfp689	inactive: 1.01
GGUGUCCUAUGAUUACAGCTT against Fam181b	inactive: 1.13
GCCACAUUCCGAAUACUCUTT against Disp1	inactive: -0.957

Sequence	z-score
GGUUGUGUCAAUAAAAACATT against Dusp2	inactive: 1.04
GGUCAAGUCACUGGUGACGTT against Fabp3	inactive: -1.73
GGAUUAAUCAAACUGAGAGTT against Lrrtm2	inactive: -1.24
GGUUGUGGAAGCAAGUAUGTT against Slc22a30	inactive: -0.498
CUUUGAUGAUAUUGCUGCUTT against Olfr849	inactive: 0.799
GGAUGAUGACGACAUUGAUTT against Eef1b2	inactive: 0.292
CCUGGCAUAAGUGGUUUUATT against Zfp82	inactive: 1.13
GAAGCUGAGUAUCUAUGGUTT against Tmem59	inactive: -0.962
GGAAUUAUCAGCGAUAAAGTT against Ska2	inactive: 0.364
GGUGCCAAUCAUUGUUAUGTT against Kcnv1	inactive: 1.73
CCACCGAAUUCGGAAAACATT against St6galnac2	inactive: 1.81
CCACAGACCUCACUUUUGGTT against Dpy30	inactive: -1.4
GGGACAGACUGAAAAAUUCTT against Pde4d	inactive: -0.521
GGACCUGAACGAUCUCGUUTT against Cyp4a12a	inactive: 1.65
GGGAAGCCAAACAGAAUCATT against 1700041G16Rik	inactive: 1.54
GGUUACCUGCUGUGUUUUGTT against Muc2	inactive: -0.0832
CCACUUCUCAGGUUAAUGGTT against Fen1	inactive: -0.611
GGAAAACAACACGAUGAAATT against Tex13b	inactive: -1.72
GAGGGCCAUCUCUGACAUGTT against Avp	inactive: 0.369
GGAGCUGUUCAUCGAACAATT against Nol7	inactive: 0.864
GGUAUUCUUGGAAGGAGGGTT against Prss22	inactive: 0.153
GGACAAGAAGCUGUCCAAGTT against Atoh7	inactive: 0.103

Sequence	z-score
GGUUUAUGAUCCACUUUCCTT against Ipp	inactive: -0.538
GCACCUCCACAAGAAUGAATT against Six2	inactive: 0.466
GAAUUUGGACAUAGUUAUGTT against Ptcra	inactive: 0.6
GGCAAAAAUACCCAAUUUUTT against Timm22	inactive: -1.12
GCAGUUUGUGGAUAUGUCATT against Treh	inactive: 0.604
GGAACAGGAAUAACAUGACTT against Vmn1r69	inactive: 1.04
GGAGGUUCUACCCUGUUCATT against Actr1a	inactive: 0.48
GGGUUAUGAAGAAGCUCCUTT against Olfr1262	inactive: -1.52
GGUUGUGGAAUGCAUCGGATT against Atp11b	inactive: -1.31
GGACAAGAAAAGGAAGAAGTT against Ap3d1	inactive: -0.656
GGUGAAACUGGAAGAUUCUTT against B3gntl1	inactive: 1.25
GCUAGUUUAAGAGACUUUGTT against Nfatc2ip	inactive: 0.234
GGUGUUUCAUUAACAGGAATT against Spaar	inactive: -0.104
GCUCUAUCAAGCUGACGGGTT against Cluap1	inactive: 0.283
GGUGGUAACGGAAAACCUGTT against Wnt10b	inactive: 0.496
GGAAGCUCAUUUUCACGUGTT against Slc22a19	inactive: 1.55
GGUUUGCCUAUUUUUUCUUTT against Trmt10c	inactive: 1.9
GGGCUUGAGAAAGAGGAUUTT against E330021D16Rik	inactive: 0.672
GCGGUUCUUACCAAGGACATT against Shf	inactive: -0.415
